From article PMC10562413
No constants are given. Whether binding was seen depends on the method and setting. In cells and extracts the contact can be indirect. Some binding calls cover weakened binding; strength is not graded here.

By UniProt entry, the sequences of proteins in these tests, tags left out.
UniProt P40763: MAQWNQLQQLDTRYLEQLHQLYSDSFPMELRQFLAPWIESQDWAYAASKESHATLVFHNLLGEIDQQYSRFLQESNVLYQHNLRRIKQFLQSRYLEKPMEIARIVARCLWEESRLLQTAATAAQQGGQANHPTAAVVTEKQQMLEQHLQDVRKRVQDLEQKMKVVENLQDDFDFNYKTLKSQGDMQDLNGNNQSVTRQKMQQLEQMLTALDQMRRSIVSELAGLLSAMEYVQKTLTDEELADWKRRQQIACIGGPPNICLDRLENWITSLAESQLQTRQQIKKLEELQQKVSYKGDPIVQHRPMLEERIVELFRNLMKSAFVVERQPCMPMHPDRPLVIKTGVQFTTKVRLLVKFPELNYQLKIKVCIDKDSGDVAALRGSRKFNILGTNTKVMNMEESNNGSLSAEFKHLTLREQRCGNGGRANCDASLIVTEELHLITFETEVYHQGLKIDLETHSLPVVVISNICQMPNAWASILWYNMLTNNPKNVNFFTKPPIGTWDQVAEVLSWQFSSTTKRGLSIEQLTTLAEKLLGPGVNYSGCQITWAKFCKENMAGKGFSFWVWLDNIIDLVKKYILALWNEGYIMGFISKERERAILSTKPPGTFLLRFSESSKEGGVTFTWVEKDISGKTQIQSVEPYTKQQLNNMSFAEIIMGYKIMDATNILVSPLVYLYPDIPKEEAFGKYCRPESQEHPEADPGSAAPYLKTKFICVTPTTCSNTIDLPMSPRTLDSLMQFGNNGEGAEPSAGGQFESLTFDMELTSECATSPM
UniProt Q96LA8: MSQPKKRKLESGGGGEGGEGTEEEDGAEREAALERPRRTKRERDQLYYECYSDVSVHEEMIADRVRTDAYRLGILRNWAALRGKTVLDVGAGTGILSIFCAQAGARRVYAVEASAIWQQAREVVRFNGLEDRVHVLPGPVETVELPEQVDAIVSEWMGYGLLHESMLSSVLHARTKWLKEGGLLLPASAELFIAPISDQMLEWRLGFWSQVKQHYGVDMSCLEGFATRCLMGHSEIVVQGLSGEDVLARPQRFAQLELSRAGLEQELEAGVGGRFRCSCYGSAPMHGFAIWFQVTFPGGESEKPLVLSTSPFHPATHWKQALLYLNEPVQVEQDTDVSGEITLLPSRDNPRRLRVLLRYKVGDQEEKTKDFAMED

Target: STAT3 (human (endogenous in MCF-7 and MDA-MB-468)) (UniProt P40763)
Test: co-IP; endogenous proteins in NP40 lysates of MCF-7 and MDA-MB-468 cells; antibody on Protein L magnetic beads, overnight at 4 °C, Western blot

- binding: binds
Substance: PRMT6 (from UniProt Q96LA8 1-375) (enzyme)
